{"source": "paper PMC5114397", "binders": {"B1": {"name": "FLAG-tagged nephrin (protein, UniProt O60500 23-1241)", "chain": "QLAIPASVPRGFWALPENLTVVEGASVELRCGVSTPGSAVQWAKDGLLLGPDPRIPGFPRYRLEGDPARGEFHLHIEACDLSDDAEYECQVGRSEMGPELVSPRVILSILVPPKLLLLTPEAGTMVTWVAGQEYVVNCVSGDAKPAPDITILLSGQTISDISANVNEGSQQKLFTVEATARVTPRSSDNRQLLVCEASSPALEAPIKASFTVNVLFPPGPPVIEWPGLDEGHVRAGQSLELPCVARGGNPLATLQWLKNGQPVSTAWGTEHTQAVARSVLVMTVRPEDHGAQLSCEAHNSVSAGTQEHGITLQVTFPPSAIIILGSASQTENKNVTLSCVSKSSRPRVLLRWWLGWRQLLPMEETVMDGLHGGHISMSNLTFLARREDNGLTLTCEAFSEAFTKETFKKSLILNVKYPAQKLWIEGPPEGQKLRAGTRVRLVCLAIGGNPEPSLMWYKDSRTVTESRLPQESRRVHLGSVEKSGSTFSRELVLVTGPSDNQAKFTCKAGQLSASTQLAVQFPPTNVTILANASALRPGDALNLTCVSVSSNPPVNLSWDKEGERLEGVAAPPRRAPFKGSAAARSVLLQVSSRDHGQRVTCRAHSAELRETVSSFYRLNVLYRPEFLGEQVLVVTAVEQGEALLPVSVSANPAPEAFNWTFRGYRLSPAGGPRHRILSSGALHLWNVTRADDGLYQLHCQNSEGTAEARLRLDVHYAPTIRALQDPTEVNVGGSVDIVCTVDANPILPGMFNWERLGEDEEDQSLDDMEKISRGPTGRLRIHHAKLAQAGAYQCIVDNGVAPPARRLLRLVVRFAPQVEHPTPLTKVAAAGDSTSSATLHCRARGVPNIVFTWTKNGVPLDLQDPRYTEHTYHQGGVHSSLLTIANVSAAQDYALFTCTATNALGSDQTNIQLVSISRPDPPSGLKVVSLTPHSVGLEWKPGFDGGLPQRFCIRYEALGTPGFHYVDVVPPQATTFTLTGLQPSTRYRVWLLASNALGDSGLADKGTQLPITTPGLHQPSGEPEDQLPTEPPSGPSGLPLLPVLFALGGLLLLSNASCVGGVLWQRRLRRLAEGISEKTEAGSEEDRVRNEYEESQWTGERDTQSSTVSTTEAEPYYRSLRDFSPQLPPTQEEVSYSRGFTGEDEDMAFPGHLYDEVERTYPPSGAWGPLYDEVQMGPWDLHWPEDTYQDPRGIYDQVAGDLDTLEPDSLPFELRGHLV"}, "B2": {"name": "FLAG-tagged neph1 (protein, UniProt Q96J84 17-757)", "chain": "QGTQTRFSQEPADQTVVAGQRAVLPCVLLNYSGIVQWTKDGLALGMGQGLKAWPRYRVVGSADAGQYNLEITDAELSDDASYECQATEAALRSRRAKLTVLIPPEDTRIDGGPVILLQAGTPHNLTCRAFNAKPAATIIWFRDGTQQEGAVASTELLKDGKRETTVSQLLINPTDLDIGRVFTCRSMNEAIPSGKETSIELDVHHPPTVTLSIEPQTVQEGERVVFTCQATANPEILGYRWAKGGFLIEDAHESRYETNVDYSFFTEPVSCEVHNKVGSTNVSTLVNVHFAPRIVVDPKPTTTDIGSDVTLTCVWVGNPPLTLTWTKKDSNMVLSNSNQLLLKSVTQADAGTYTCRAIVPRIGVAEREVPLYVNGPPIISSEAVQYAVRGDGGKVECFIGSTPPPDRIAWAWKENFLEVGTLERYTVERTNSGSGVLSTLTINNVMEADFQTHYNCTAWNSFGPGTAIIQLEEREVLPVGIIAGATIGASILLIFFFIALVFFLYRRRKGSRKDVTLRKLDIKVETVNREPLTMHSDREDDTASVSTATRVMKAIYSSFKDDVDLKQDLRCDTIDTREEYEMKDPTNGYYNVRAHEDRPSSRAVLYADYRAPGPARFDGRPSSRLSHSSGYAQLNTYSRGPASDYGPEPTPPGPAAPAGTDTTSQLSYENYEKFNSHPFPGAAGYPTYRLGYPQAPPSGLERTPYEAYDPIGKYATATRFSYTSQHSDYGQRFQQRMQTHV"}}, "molecular_target": "Myc-sdk-1Δ (C-terminal deletion mutant of the adhesion molecule sidekick-1)", "test": "co-IP; 293T cells doubly transfected with a Myc-tagged bait and a FLAG-tagged prey; total cellular lysates incubated with Myc beads overnight at 4 °C, beads washed three times and boiled; Western blot with anti-FLAG M2", "note": "These are yes or no findings as the source states them, for the method shown. Binding seen in cells or lysates may run through a third protein. Tags and fused reporters may be left off the sequences shown.", "data": [{"binder": "B1", "values": [{"measurement": "binding", "value": "no binding"}]}, {"binder": "B2", "values": [{"measurement": "binding", "value": "no binding"}]}]}
